Test results as given in PubChem BioAssay AID252 (DTP/NCI, 2004).
The list is a part of this screen's results and no random one: it gathers some chemical classes. Other doses and runs of a compound may be missing. T/C: endpoint of the treated group in % of that of the vehicle group. For survival time, this PubChem deposit counts one and a half times the control or more as active, and values a quarter to a half above the control carry no call in these data; other NCI protocols may use other cut-offs. Some T/C values are marked as having no survivor count here; that says nothing about deaths at the dose. Schedules are NCI's codes, taken here to give the interval after Q, in days (D) or hours (H), and the number of doses after X. Some entries were tested several times; the values are given in rising order.

Test system: BDF1 mice, intracerebral L1210 leukemia, survival T/C
Test: NCI In Vivo Anticancer Drug Screen. Data for tumor model L1210 Leukemia (intracerebral) in B6D2F1 (BDF1) mice
Settings: vehicle: saline, higher T/C = longer survival
Method: The antitumor activity of compounds was measured in mice bearing transplantable tumors. Survival or tumor size were measured and the results are expressed as the measurement made in the treated group (T) divided by the measurement made in the vehicle treated control group (C). The tumor model used in this assay is L1210 Leukemia (intracerebral) in B6D2F1 (BDF1) mice

For `CN(CCCl)CCCl`, the T/C (T/C endpoint: mean survival time, dose: 0.13 mg/kg/injection, schedule: Q01DX015 (ip)) was 102 % of control [survivor count not shown], the T/C (T/C endpoint: mean survival time, dose: 0.2 mg/kg/injection, schedule: Q01DX015 (ip)) was 101 % of control [survivor count not shown] and the T/C (T/C endpoint: mean survival time, dose: 0.3 mg/kg/injection, schedule: Q01DX015 (ip)) was 103 % of control [survivor count not shown]. The T/C (T/C endpoint: mean survival time, dose: 1.3 mg/kg/injection, schedule: Q01DX001 (ip)) was 104 % of control [survivor count not shown], the T/C (T/C endpoint: mean survival time, dose: 1.5 mg/kg/injection, schedule: Q01DX001 (ip)) was 102 % of control [survivor count not shown] and the T/C (T/C endpoint: mean survival time, dose: 1.9 mg/kg/injection, schedule: Q01DX001 (ip)) was 103 % of control [survivor count not shown]. The T/C (T/C endpoint: mean survival time, dose: 2.0 mg/kg/injection, schedule: Q01DX001 (ip)) was 105 [survivor count not shown] and 110 % of control [survivor count not shown], the T/C (T/C endpoint: mean survival time, dose: 2.5 mg/kg/injection, schedule: Q01DX001 (ip)) was 96 [survivor count not shown] and 110 % of control [survivor count not shown] and the T/C (T/C endpoint: mean survival time, dose: 2.9 mg/kg/injection, schedule: Q01DX001 (ip)) was 101 % of control [survivor count not shown]. The T/C (T/C endpoint: mean survival time, dose: 3.0 mg/kg/injection, schedule: Q01DX001 (ip)) was 97 [survivor count not shown] and 111 % of control [survivor count not shown], the T/C (T/C endpoint: mean survival time, dose: 3.5 mg/kg/injection, schedule: Q01DX001 (ip)) was 98 [survivor count not shown] and 120 % of control [survivor count not shown] and the T/C (T/C endpoint: mean survival time, dose: 4.0 mg/kg/injection, schedule: Q01DX001 (ip)) was 92 % of control [survivor count not shown]. For the same compound, the T/C (T/C endpoint: mean survival time, dose: 4.5 mg/kg/injection, schedule: Q01DX001 (ip)) was 87 % of control [survivor count not shown], the T/C (T/C endpoint: median survival time, dose: 1.5 mg/kg/injection, schedule: Q01DX001 (oral)) was 104 % of control [survivor count not shown] and the T/C (T/C endpoint: median survival time, dose: 3.0 mg/kg/injection, schedule: Q01DX001 (oral)) was 101 % of control [survivor count not shown]. For the same compound, the T/C (T/C endpoint: median survival time, dose: 6.0 mg/kg/injection, schedule: Q01DX001 (oral)) was 103 % of control [survivor count not shown], the T/C (T/C endpoint: median survival time, dose: 12.0 mg/kg/injection, schedule: Q01DX001 (oral)) was 109 % of control [survivor count not shown] and the T/C (T/C endpoint: median survival time, dose: 24.0 mg/kg/injection, schedule: Q01DX001 (oral)) was 103 % of control [survivor count not shown].
